Source: article PMC12309053
No constants are given. Whether binding was seen depends on the method and setting. Binding seen in cells or lysates may run through a third protein. These calls come from enrichment with a bait or labelling near it, and not all partners need be listed. Where a sequence is shown, tags or fusion partners need not be part of it.

T1: SRSF7-GFP fusion product (Serine/arginine-rich splicing factor 7, GFP-tagged at the C-terminus, from a BAC) (human) (UniProt Q16629)
T1 sequence: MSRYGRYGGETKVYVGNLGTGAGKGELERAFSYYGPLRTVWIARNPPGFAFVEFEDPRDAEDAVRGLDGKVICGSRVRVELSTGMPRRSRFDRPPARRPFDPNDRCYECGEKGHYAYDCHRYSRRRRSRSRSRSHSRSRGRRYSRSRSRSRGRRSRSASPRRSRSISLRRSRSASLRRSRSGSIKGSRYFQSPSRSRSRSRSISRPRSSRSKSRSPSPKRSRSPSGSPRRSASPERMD

B1: AQR (protein, UniProt O60306 1-1485)
chain: MAAPAQPKKIVAPTVSQINAEFVTQLACKYWAPHIKKKSPFDIKVIEDIYEKEIVKSRFAIRKIMLLEFSQYLENYLWMNYSPEVSSKAYLMSICCMVNEKFRENVPAWEIFKKKPDHFPFFFKHILKAALAETDGEFSLHEQTVLLLFLDHCFNSLEVDLIRSQVQQLISLPMWMGLQLARLELELKKTPKLRKFWNLIKKNDEKMDPEAREQAYQERRFLSQLIQKFISVLKSVPLSEPVTMDKVHYCERFIELMIDLEALLPTRRWFNTILDDSHLLVHCYLSNLVRREEDGHLFSQLLDMLKFYTGFEINDQTGNALTENEMTTIHYDRITSLQRAAFAHFPELYDFALSNVAEVDTRESLVKFFGPLSSNTLHQVASYLCLLPTLPKNEDTTFDKEFLLELLVSRHERRISQIQQLNQMPLYPTEKIIWDENIVPTEYYSGEGCLALPKLNLQFLTLHDYLLRNFNLFRLESTYEIRQDIEDSVSRMKPWQSEYGGVVFGGWARMAQPIVAFTVVEVAKPNIGENWPTRVRADVTINLNVRDHIKDEWEGLRKHDVCFLITVRPTKPYGTKFDRRRPFIEQVGLVYVRGCEIQGMLDDKGRVIEDGPEPRPNLRGESRTFRVFLDPNQYQQDMTNTIQNGAEDVYETFNIIMRRKPKENNFKAVLETIRNLMNTDCVVPDWLHDIILGYGDPSSAHYSKMPNQIATLDFNDTFLSIEHLKASFPGHNVKVTVEDPALQIPPFRITFPVRSGKGKKRKDADVEDEDTEEAKTLIVEPHVIPNRGPYPYNQPKRNTIQFTHTQIEAIRAGMQPGLTMVVGPPGTGKTDVAVQIISNIYHNFPEQRTLIVTHSNQALNQLFEKIMALDIDERHLLRLGHGEEELETEKDFSRYGRVNYVLARRIELLEEVKRLQKSLGVPGDASYTCETAGYFFLYQVMSRWEEYISKVKNKGSTLPDVTEVSTFFPFHEYFANAPQPIFKGRSYEEDMEIAEGCFRHIKKIFTQLEEFRASELLRSGLDRSKYLLVKEAKIIAMTCTHAALKRHDLVKLGFKYDNILMEEAAQILEIETFIPLLLQNPQDGFSRLKRWIMIGDHHQLPPVIKNMAFQKYSNMEQSLFTRFVRVGVPTVDLDAQGRARASLCNLYNWRYKNLGNLPHVQLLPEFSTANAGLLYDFQLINVEDFQGVGESEPNPYFYQNLGEAEYVVALFMYMCLLGYPADKISILTTYNGQKHLIRDIINRRCGNNPLIGRPNKVTTVDRFQGQQNDYILLSLVRTRAVGHLRDVRRLVVAMSRARLGLYIFARVSLFQNCFELTPAFSQLTARPLHLHIIPTEPFPTTRKNGERPSHEVQIIKNMPQMANFVYNMYMHLIQTTHHYHQTLLQLPPAMVEEGEEVQNQETELETEEEAMTVQADIIPSPTDTSCRQETPAFQTDTTPSETGATSTPEAIPALSETTPTVVGAVSAPAEANTPQDATSAPEETK
B2: FYTTD1 (protein, UniProt Q96QD9 1-318)
chain: MNRFGTRLVGATATSSPPPKARSNENLDKIDMSLDDIIKLNRKEGKKQNFPRLNRRLLQQSGAQQFRMRVRWGIQQNSGFGKTSLNRRGRVMPGKRRPNGVITGLAARKTTGIRKGISPMNRPPLSDKNIEQYFPVLKRKANLLRQNEGQRKPVAVLKRPSQLSRKNNIPANFTRSGNKLNHQKDTRQATFLFRRGLKVQAQLNTEQLLDDVVAKRTRQWRTSTTNGGILTVSIDNPGAVQCPVTQKPRLTRTAVPSFLTKREQSDVKKVPKGVPLQFDINSVGKQTGMTLNERFGILKEQRATLTYNKGGSRFVTVG
B3: BUD31 (protein, UniProt P41223 1-144)
chain: MPKVKRSRKAPPDGWELIEPTLDELDQKMREAETEPHEGKRKVESLWPIFRIHHQKTRYIFDLFYKRKAISRELYEYCIKEGYADKNLIAKWKKQGYENLCCLRCIQTRDTNFGTNCICRVPKSKLEVGRIIECTHCGCRGCSG
B4: ISY1 (protein, UniProt Q9ULR0 1-285)
chain: MARNAEKAMTALARFRQAQLEEGKVKERRPFLASECTELPKAEKWRRQIIGEISKKVAQIQNAGLGEFRIRDLNDEINKLLREKGHWEVRIKELGGPDYGKVGPKMLDHEGKEVPGNRGYKYFGAAKDLPGVRELFEKEPLPPPRKTRAELMKAIDFEYYGYLDEDDGVIVPLEQEYEKKLRAELVEKWKAEREARLARGEKEEEEEEEEEINIYAVTEEESDEEGSQEKGGDDSQQKFIAHVPVPSQQEIEEALVRRKKMELLQKYASETLQAQSEEARRLLGY
B5: SYF2 (protein, UniProt O95926 1-243)
chain: MAAIAASEVLVDSAEEGSLAAAAELAAQKREQRLRKFRELHLMRNEARKLNHQEVVEEDKRLKLPANWEAKKARLEWELKEEEKKKECAARGEDYEKVKLLEISAEDAERWERKKKRKNPDLGFSDYAAAQLRQYHRLTKQIKPDMETYERLREKHGEEFFPTSNSLLHGTHVPSTEEIDRMVIDLEKQIEKRDKYSRRRPYNDDADIDYINERNAKFNKKAERFYGKYTAEIKQNLERGTAV
B6: NCOA5 (protein, UniProt Q9HCD5 1-579)
chain: MNTAPSRPSPTRRDPYGFGDSRDSRRDRSPIRGSPRREPRDGRNGRDARDSRDIRDPRDLRDHRHSRDLRDHRDSRSVRDVRDVRDLRDFRDLRDSRDFRDQRDPMYDRYRDMRDSRDPMYRREGSYDRYLRMDDYCRRKDDSYFDRYRDSFDGRGPPGPESQSRAKERLKREERRREELYRQYFEEIQRRFDAERPVDCSVIVVNKQTKDYAESVGRKVRDLGMVVDLIFLNTEVSLSQALEDVSRGGSPFAIVITQQHQIHRSCTVNIMFGTPQEHRNMPQADAMVLVARNYERYKNECREKEREEIARQAAKMADEAILQERERGGPEEGVRGGHPPAIQSLINLLADNRYLTAEETDKIINYLRERKERLMRSSTDSLPGPISRQPLGATSGASLKTQPSSQPLQSGQVLPSATPTPSAPPTSQQELQAKILSLFNSGTVTANSSSASPSVAAGNTPNQNFSTAANSQPQQRSQASGNQPPSILGQGGSAQNMGPRPGAPSQGLFGQPSSRLAPASNMTSQRPVSSTGINFDNPSVQKALDTLIQSGPALSHLVSQTTAQMGQPQAPMGSYQRHY
modifications: phosphorylated
B7: TRA2A (protein, UniProt Q13595 1-282)
chain: MSDVEENNFEGRESRSQSKSPTGTPARVKSESRSGSRSPSRVSKHSESHSRSRSKSRSRSRRHSHRRYTRSRSHSHSHRRRSRSRSYTPEYRRRRSRSHSPMSNRRRHTGSRANPDPNTCLGVFGLSLYTTERDLREVFSRYGPLSGVNVVYDQRTGRSRGFAFVYFERIDDSKEAMERANGMELDGRRIRVDYSITKRAHTPTPGIYMGRPTHSGGGGGGGGGGGGGGGGRRRDSYYDRGYDRGYDRYEDYDYRYRRRSPSPYYSRYRSRSRSRSYSPRRY
modifications: phosphorylated
B8: phosphorylated SRSF6 (protein, UniProt Q13247 1-344)
chain: MPRVYIGRLSYNVREKDIQRFFSGYGRLLEVDLKNGYGFVEFEDSRDADDAVYELNGKELCGERVIVEHARGPRRDRDGYSYGSRSGGGGYSSRRTSGRDKYGPPVRTEYRLIVENLSSRCSWQDLKDFMRQAGEVTYADAHKERTNEGVIEFRSYSDMKRALDKLDGTEINGRNIRLIEDKPRTSHRRSYSGSRSRSRSRRRSRSRSRRSSRSRSRSISKSRSRSRSRSKGRSRSRSKGRKSRSKSKSKPKSDRGSHSHSRSRSKDEYEKSRSRSRSRSPKENGKGDIKSKSRSRSQSRSNSPLPVPPSKARSVSPPPKRATSRSRSRSRSKSRSRSRSSSRD
modifications: phosphorylated
B9: NUP160 (protein, UniProt Q12769 1-1436)
chain: MLHLSAAPPAPPPEVTATARPCLCSVGRRGDGGKMAAAGALERSFVELSGAERERPRHFREFTVCSIGTANAVAGAVKYSESAGGFYYVESGKLFSVTRNRFIHWKTSGDTLELMEESLDINLLNNAIRLKFQNCSVLPGGVYVSETQNRVIILMLTNQTVHRLLLPHPSRMYRSELVVDSQMQSIFTDIGKVDFTDPCNYQLIPAVPGISPNSTASTAWLSSDGEALFALPCASGGIFVLKLPPYDIPGMVSVVELKQSSVMQRLLTGWMPTAIRGDQSPSDRPLSLAVHCVEHDAFIFALCQDHKLRMWSYKEQMCLMVADMLEYVPVKKDLRLTAGTGHKLRLAYSPTMGLYLGIYMHAPKRGQFCIFQLVSTESNRYSLDHISSLFTSQETLIDFALTSTDIWALWHDAENQTVVKYINFEHNVAGQWNPVFMQPLPEEEIVIRDDQDPREMYLQSLFTPGQFTNEALCKALQIFCRGTERNLDLSWSELKKEVTLAVENELQGSVTEYEFSQEEFRNLQQEFWCKFYACCLQYQEALSHPLALHLNPHTNMVCLLKKGYLSFLIPSSLVDHLYLLPYENLLTEDETTISDDVDIARDVICLIKCLRLIEESVTVDMSVIMEMSCYNLQSPEKAAEQILEDMITIDVENVMEDICSKLQEIRNPIHAIGLLIREMDYETEVEMEKGFNPAQPLNIRMNLTQLYGSNTAGYIVCRGVHKIASTRFLICRDLLILQQLLMRLGDAVIWGTGQLFQAQQDLLHRTAPLLLSYYLIKWGSECLATDVPLDTLESNLQHLSVLELTDSGALMANRFVSSPQTIVELFFQEVARKHIISHLFSQPKAPLSQTGLNWPEMITAITSYLLQLLWPSNPGCLFLECLMGNCQYVQLQDYIQLLHPWCQVNVGSCRFMLGRCYLVTGEGQKALECFCQAASEVGKEEFLDRLIRSEDGEIVSTPRLQYYDKVLRLLDVIGLPELVIQLATSAITEAGDDWKSQATLRTCIFKHHLDLGHNSQAYEALTQIPDSSRQLDCLRQLVVVLCERSQLQDLVEFPYVNLHNEVVGIIESRARAVDLMTHNYYELLYAFHIYRHNYRKAGTVMFEYGMRLGREVRTLRGLEKQGNCYLAALNCLRLIRPEYAWIVQPVSGAVYDRPGASPKRNHDGECTAAPTNRQIEILELEDLEKECSLARIRLTLAQHDPSAVAVAGSSSAEEMVTLLVQAGLFDTAISLCQTFKLPLTPVFEGLAFKCIKLQFGGEAAQAEAWAWLAANQLSSVITTKESSATDEAWRLLSTYLERYKVQNNLYHHCVINKLLSHGVPLPNWLINSYKKVDAAELLRLYLNYDLLEEAVDLVSEYVDAVLGKGHQYFGIEFPLSATAPMVWLPYSSIDQLLQALGENSANSHNIALSQKILDKLEDYQQKVDKATRDLLYRRTL
B10: phosphorylated SRSF8 (protein, UniProt Q9BRL6 1-282)
chain: MSCGRPPPDVDGMITLKVDNLTYRTSPDSLRRVFEKYGRVGDVYIPREPHTKAPRGFAFVRFHDRRDAQDAEAAMDGAELDGRELRVQVARYGRRDLPRSRQGEPRGRSRGGGYGRRSRSYGRRSRSPRRRHRSRSRGPSCSRSRSRSRYRGSRYSRSPYSRSPYSRSRYSRSPYSRSRYRESRYGGSHYSSSGYSNSRYSRYHSSRSHSKSGSSTSSRSASTSKSSSARRSKSSSVSRSRSRSRSSSMTRSPPRVSKRKSKSRSRSKRPPKSPEEEGQMSS
modifications: phosphorylated

Target: T1, SRSF7-GFP fusion product (Serine/arginine-rich splicing factor 7, GFP-tagged at the C-terminus, from a BAC) (human)
Test: affinity purification with mass spectrometry; GFP-Trap agarose beads on lysates of BAC-SRSF7-GFP MDA-MB-231 cells treated with 0.1% DMSO or 1 µM T-025 for 24 h; EBC buffer, benzonase, 300 mM NaCl, 2 h at 4 °C; MDA-MB-231-GFP cells as negative control; on-bead trypsin digest, label-free quantification, phospho (STY) as variable modification, four biological replicates

Binder | binding
B1 | binds
B2 | binds
B3 | binds
B4 | binds
B5 | binds
B6 | binds
B7 | binds
B8 | binds
B9 | binds
B10 | binds
